Results from PubChem BioAssay AID1917 (Vanderbilt High Throughput Screening Facility, 2009).
Hit rate of the full screen: of about 3,000 compounds, about 1,600 (53%) were called active. So high a share suggests a set chosen from earlier hits. The inconclusive results got no clear call from the source; some entries with a clear call stand among them for comparison.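 How the source made its calls: active means Flux at 10 µM at least 3 SD below or above vehicle control mean in one or both replicates; inconclusive means no clear call, values can overlap the other calls; inactive means the rest.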

Amino acid sequences for entries named in this document (tags omitted). A change or cut given only in a name is not applied to a line headed by its entry.
UniProt P48048: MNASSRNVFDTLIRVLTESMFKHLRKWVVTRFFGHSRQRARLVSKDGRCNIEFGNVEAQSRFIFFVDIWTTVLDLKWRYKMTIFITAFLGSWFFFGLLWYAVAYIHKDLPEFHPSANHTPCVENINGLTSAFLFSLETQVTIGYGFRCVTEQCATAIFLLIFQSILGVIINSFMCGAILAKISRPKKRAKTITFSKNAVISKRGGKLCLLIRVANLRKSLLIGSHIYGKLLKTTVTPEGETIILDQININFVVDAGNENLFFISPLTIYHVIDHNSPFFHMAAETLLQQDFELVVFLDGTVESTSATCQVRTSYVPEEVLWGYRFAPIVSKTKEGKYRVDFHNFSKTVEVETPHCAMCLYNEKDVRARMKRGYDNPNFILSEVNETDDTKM

These compounds were tested against ATP-sensitive inward rectifier potassium channel 1 (Homo sapiens) (UniProt P48048) (assay: retested modulators of human Kir1.1 channel – cell-based, thallium flux, duplicate, resupplied hits, confirmation (AID 1917)). Settings: ROMK thallium flux, fluorescence ratio; at 10 µM; active compounds read low.

| SMILES | normalized thallium flux (F/F0 slope) |
| --- | --- |
| Cc1ccc(N2NC(=O)/C(=C\c3cc4c(cc3[N+](=O)[O-])OCO4)C2=O)cc1C | active: 0.0481 |
| CCOC(=O)C1=C(C)OC(N)=C(C#N)C1c1ccc(C)s1 (centres undefined) | active: 0.0639 |
| CCCCOc1ccc(CSCCN)cc1Cl | inconclusive: 0.0647 |
| CC(C)NC(=O)C1(O)c2ccccc2NC(=O)N1c1ccc(Cl)c(Cl)c1 (centres undefined) | inconclusive: 0.0699 |
| CCCN1Cc2cccc(C(=O)N3CCN(c4cc(Cl)ccc4C)CC3)c2C1=O | inconclusive: 0.0685 |
| C/C(O)=C\c1nc2ccccc2oc1=O | inactive: 0.0738 |
| CCOc1cc(/C=N/N=C(N)N)ccc1OCc1ccc(Cl)cc1 | active: 0.053 |
| CC(C)OC(=O)Cn1cc(C#N)c2ccccc21 | inactive: 0.0794 |
| Cc1ccc(C2CC2C(=O)NNC(=S)Nc2cccc(Cl)c2)cc1 (centres undefined) | inconclusive: 0.0712 |
| Cc1ccc(C)c(Nc2nc3nonc3nc2N2CCOCC2)c1 | inconclusive: 0.0701 |
| O=[N+]([O-])c1cc(/C=N/O)ccc1N1CCCC1 | inconclusive: 0.0709 |
| O=C1C=C(c2ccccc2)C(=O)N1Nc1ccccc1 | active: 0.0606 |
| Cc1cc(C)nc(N/N=C/c2sccc2C)n1 | inactive: 0.0758 |
| CC(=O)Nc1ccc(S(=O)(=O)N2c3ccccc3C(C)=CC2(C)C)cc1 | inactive: 0.0862 |
| CCCCN(CC)C(=O)CSc1nc2c(sc(=S)n2-c2ccc(OCC)cc2)c(=O)[nH]1 | inconclusive: 0.0716 |
| CC1=NN(C(=O)c2ccccc2Cl)C(O)(c2cccnc2)C1 (centres undefined) | inconclusive: 0.0742 |
| CC1(C)CN(c2cccc(Br)c2)C1=O | inactive: 0.0732 |
| COc1cccc(-c2csc(N3CCN(C(=O)C4CCCCC4)CC3)n2)c1 | inconclusive: 0.0712 |
| O=C(Oc1cccnc1)c1ccc(Cl)c(Cl)c1 | inconclusive: 0.0703 |
| COC(=O)c1ccccc1-c1ccc(C(c2c(C)[nH][nH]c2=O)c2c(C)[nH][nH]c2=O)o1 | inconclusive: 0.0683 |

| SMILES | normalized thallium flux (F/F0 slope) |
| --- | --- |
| Clc1cncc(Cl)c1N/N=C/c1ccncc1 | active: 0.117 |
| O=C(N/N=C/c1cccs1)c1cc(-c2ccncc2)nc2ccccc12 | inactive: 0.0852 |
| COc1cccc(-c2nn(C)c3sc(C(=O)NCc4ccccn4)cc23)c1 | inactive: 0.0735 |
| CCOC(=O)c1c(C)n(-c2ccccc2)c2ccc(O)c(CN(C)C)c12 | inconclusive: 0.0693 |
| Cc1cccc(OCC(=O)Nc2ccccc2C(=O)N2CCOCC2)c1 | inconclusive: 0.0713 |
| S=C(Nc1ccc(Oc2ccccc2)cc1)N1CCN(c2ccccn2)CC1 | inactive: 0.0818 |
| CCCCC(CC)CNC(=O)CCS(=O)(=O)c1cccc2nonc12 (centres undefined) | inconclusive: 0.0701 |
| COc1cc(/C=C2/CC/C(=C/c3ccc(O)c(OC)c3)C2=O)ccc1O | active: 0.0512 |
| O=C1c2cccc3c(N4CCCCC4)ccc(c23)C(=O)N1c1cccc(O)c1 | inconclusive: 0.0611 |
| O=S(=O)(Nc1nc2c(s1)CCCC2)c1ccc(Br)cc1 | inactive: 0.0759 |
| O=c1c2cc(Cl)ccc2nc(-c2ccc(Cl)c(Cl)c2)n1O | active: 0.182 |
| COCC1CCCCN1Cc1cn(-c2ccccc2)nc1-c1ccc2c(c1)OCO2 (centres undefined) | active: 0.065 |
| O=P(OC1CCCCC1)(OC1CCCCC1)C(Nc1ccccc1)c1cccnc1 (centres undefined) | inconclusive: 0.0692 |
| CCOc1cc(/C=N/NC(=O)CN2CCCCC2)ccc1OCc1cccc(Cl)c1 | inconclusive: 0.0668 |
| CCCCOc1ccc(Br)cc1CSC(=N)N | active: 0.0575 |
| COc1ccc(-n2c(O)c(/C=N/NS(=O)(=O)c3ccc(C)c([N+](=O)[O-])c3)c3ccccc3c2=O)cc1OC | inconclusive: 0.0689 |
| Cc1ccc(C)c(OCC(O)CN2CCC(CN3C(=O)c4cccc5cccc(c45)C3=O)CC2)c1 (centres undefined) | inconclusive: 0.0698 |
| COc1ccc(/C=N/n2c(SC)nnc2-c2ccccc2)c(OC)c1OC | inactive: 0.0798 |
| CN1C(=O)c2ccccc2C(C(=O)O)C1c1cccc(Cl)c1 (centres undefined) | inactive: 0.0773 |
| COc1ccccc1NC(=O)/C=C/c1ccc2c(c1)OCO2 | inactive: 0.0912 |

| SMILES | normalized thallium flux (F/F0 slope) |
| --- | --- |
| Cc1cc(C)n(-c2nc(NCCN(C)C)c3c4c(sc3n2)CCCC4)n1 | inconclusive: 0.062 |
| CCn1c(SCC(=O)Nc2nc3ccc(OC)cc3s2)nc2c1c(=O)n(C)c(=O)n2C | inconclusive: 0.0703 |
| O=C(CSc1ncn[nH]1)NC12CC3CC(CC(C3)C1)C2 | inactive: 0.0745 |
| Cc1ccc(C)c2[nH]c(=O)c(CN(CC3CCCO3)C(=S)NCc3ccco3)cc12 (centres undefined) | inconclusive: 0.0702 |
| CC(C)c1ccc(-n2c(-c3ccccc3)c[n+]3c2CCc2ccccc2-3)cc1 | active: 0.0411 |
| CCn1c(=O)c(C)nn2c3ccccc3nc12 | inactive: 0.0725 |
| CCCCNc1cc(C)nc(NCc2ccccc2)n1 | active: 0.0505 |
| N#CC1=C(N)C(C#N)(C#N)[C@H](c2ccncc2)[C@H]2CC3(CC=C12)OCCO3 | inconclusive: 0.0724 |
| COCCN(CC(=O)NC1CCCCC1)C(=O)/C=C/C(=O)c1ccc(OC)cc1O | active: 0.0534 |
| O=Cc1ccc(-c2cccc([N+](=O)[O-])c2)o1 | active: 0.101 |
| Cc1ccc(C)c(-c2csc(N)c2C(=O)OC(C)C)c1 | inactive: 0.0781 |
| O=C(c1ccc([N+](=O)[O-])cc1)N1CCSC1c1ccc(Cl)cc1 (centres undefined) | inconclusive: 0.0699 |
| C(#CCN1CCOCC1)COCCOC(c1ccccc1)c1ccccc1 | inactive: 0.0759 |
| Cc1cc(C)n(-c2nc(Nc3ccccc3C(F)(F)F)nc(-n3nc(C)cc3C)n2)n1 | inconclusive: 0.0708 |
| O=[N+]([O-])c1ccc2c(c1)/C(=N\O)c1ccccc1-2 | inconclusive: 0.0706 |
| O=c1cc(-c2ccccc2)[nH]c2cc(F)ccc12 | inconclusive: 0.0986 |
| CN1/C(=C/C=C(C#N)C#N)C=Cc2ccccc21 | active: 0.0465 |
| Clc1ccc(OCCn2ccnc2)c2ccccc12 | inconclusive: 0.0682 |
| COc1ccc(NC(=O)/C(Cl)=C(/Cl)S(=O)(=O)Cc2ccc(C)cc2)cn1 | inconclusive: 0.0693 |

Another view of some results above:
SMILES,normalized thallium flux (F/F0 slope)
N#CC1=C(N)C(C#N)(C#N)[C@H](c2ccncc2)[C@H]2CC3(CC=C12)OCCO3,inconclusive: 0.0724
COCCN(CC(=O)NC1CCCCC1)C(=O)/C=C/C(=O)c1ccc(OC)cc1O,active: 0.0534
O=Cc1ccc(-c2cccc([N+](=O)[O-])c2)o1,active: 0.101

Ordered by formula weight (low to high): some entries from above

| SMILES | normalized thallium flux (F/F0 slope) |
| --- | --- |
| CCCCOc1ccc(Br)cc1CSC(=N)N | active: 0.0575 |
| CC(C)c1ccc(-n2c(-c3ccccc3)c[n+]3c2CCc2ccccc2-3)cc1 | active: 0.0411 |
| COc1ccc(NC(=O)/C(Cl)=C(/Cl)S(=O)(=O)Cc2ccc(C)cc2)cn1 | inconclusive: 0.0693 |
